Reference: US20130034493A1
Results are given in words; binding and its absence hold for the method and conditions named. Where a sequence is shown, tags or fusion partners need not be part of it.

Experiments:
recombinant BMP1 (rBMP1) [1] = experiment: ELISA, detection with FLAG (M2) antibody (FIG. 7A)
recombinant BMP9 (rBMP9) [2] = experiment: ELISA, detection with FLAG (M2) antibody (FIG. 7A)
recombinant BMP1 (rBMP1) [3] = experiment: ELISA, detection with FLAG (M2) antibody (FIG. 19A)
recombinant BMP9 (rBMP9) [4] = experiment: as above

binding (recombinant BMP1 (rBMP1) [1]): no binding (tested: 0.1-1 ng/µl)
binding (recombinant BMP9 (rBMP9) [2]): no binding (tested: 0.1-1 ng/µl)
binding (recombinant BMP1 (rBMP1) [3]): no binding (tested: 0.1-1 µg/mL)
binding (recombinant BMP9 (rBMP9) [4]): no binding (tested: 0.1-1 µg/mL)
B1: mouse recombinant Olfml3-FLAG tagged protein (rOlfml3-FLAG) (protein, not shown: small tags and cut ends)
chain: QQHHLVEYMERRLAALEERLAQCQDQSSRHAAELRDFKNKMLPLLEVAEKERETLRTEADSISGRVDRLEREVDYLETQNPALPCVELDEKVTGGPGAKGKGRRNEKYDMVTDCSYTVAQVRSMKILKRFGGSVGLWTKDPLGPAEKIYVLDGTQNDTAFVFPRLRDFTLAMAARKASRIRVPFPWVGTGQLVYGGFLYYARRPPGGPGGGGELENTLQLIKFHLANRTVVDSSVFPAESLIPPYGLTADTYIDLAADEEGLWAVYATRDDDRHLCLAKLDPQTLDTEQQWDTPCPRENAEAAFVICGTLYVVYNTRPASRARIQCSFDASGTLAPERAALSYFPRRYGAHASLRYNPRERQLYAWDDGYQIVYKLEMKKKEEEV
